According to the supplement of paper PMC10849652:
This is one part of the list.

Sequences of proteins named here, by UniProt entry; tags and fusion partners are left off. A change or cut given only in a name is not applied to a line headed by its entry.
UniProt P62333, whole entry, looked up: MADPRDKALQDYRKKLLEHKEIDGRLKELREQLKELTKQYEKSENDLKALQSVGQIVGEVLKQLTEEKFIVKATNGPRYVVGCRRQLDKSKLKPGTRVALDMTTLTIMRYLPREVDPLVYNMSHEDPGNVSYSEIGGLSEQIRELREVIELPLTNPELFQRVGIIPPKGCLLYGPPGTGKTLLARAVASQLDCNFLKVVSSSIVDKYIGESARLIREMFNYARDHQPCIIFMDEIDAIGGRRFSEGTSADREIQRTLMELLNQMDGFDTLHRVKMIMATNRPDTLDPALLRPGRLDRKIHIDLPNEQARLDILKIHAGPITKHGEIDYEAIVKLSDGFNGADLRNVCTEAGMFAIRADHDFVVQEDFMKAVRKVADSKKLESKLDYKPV
UniProt P20742, whole entry, looked up: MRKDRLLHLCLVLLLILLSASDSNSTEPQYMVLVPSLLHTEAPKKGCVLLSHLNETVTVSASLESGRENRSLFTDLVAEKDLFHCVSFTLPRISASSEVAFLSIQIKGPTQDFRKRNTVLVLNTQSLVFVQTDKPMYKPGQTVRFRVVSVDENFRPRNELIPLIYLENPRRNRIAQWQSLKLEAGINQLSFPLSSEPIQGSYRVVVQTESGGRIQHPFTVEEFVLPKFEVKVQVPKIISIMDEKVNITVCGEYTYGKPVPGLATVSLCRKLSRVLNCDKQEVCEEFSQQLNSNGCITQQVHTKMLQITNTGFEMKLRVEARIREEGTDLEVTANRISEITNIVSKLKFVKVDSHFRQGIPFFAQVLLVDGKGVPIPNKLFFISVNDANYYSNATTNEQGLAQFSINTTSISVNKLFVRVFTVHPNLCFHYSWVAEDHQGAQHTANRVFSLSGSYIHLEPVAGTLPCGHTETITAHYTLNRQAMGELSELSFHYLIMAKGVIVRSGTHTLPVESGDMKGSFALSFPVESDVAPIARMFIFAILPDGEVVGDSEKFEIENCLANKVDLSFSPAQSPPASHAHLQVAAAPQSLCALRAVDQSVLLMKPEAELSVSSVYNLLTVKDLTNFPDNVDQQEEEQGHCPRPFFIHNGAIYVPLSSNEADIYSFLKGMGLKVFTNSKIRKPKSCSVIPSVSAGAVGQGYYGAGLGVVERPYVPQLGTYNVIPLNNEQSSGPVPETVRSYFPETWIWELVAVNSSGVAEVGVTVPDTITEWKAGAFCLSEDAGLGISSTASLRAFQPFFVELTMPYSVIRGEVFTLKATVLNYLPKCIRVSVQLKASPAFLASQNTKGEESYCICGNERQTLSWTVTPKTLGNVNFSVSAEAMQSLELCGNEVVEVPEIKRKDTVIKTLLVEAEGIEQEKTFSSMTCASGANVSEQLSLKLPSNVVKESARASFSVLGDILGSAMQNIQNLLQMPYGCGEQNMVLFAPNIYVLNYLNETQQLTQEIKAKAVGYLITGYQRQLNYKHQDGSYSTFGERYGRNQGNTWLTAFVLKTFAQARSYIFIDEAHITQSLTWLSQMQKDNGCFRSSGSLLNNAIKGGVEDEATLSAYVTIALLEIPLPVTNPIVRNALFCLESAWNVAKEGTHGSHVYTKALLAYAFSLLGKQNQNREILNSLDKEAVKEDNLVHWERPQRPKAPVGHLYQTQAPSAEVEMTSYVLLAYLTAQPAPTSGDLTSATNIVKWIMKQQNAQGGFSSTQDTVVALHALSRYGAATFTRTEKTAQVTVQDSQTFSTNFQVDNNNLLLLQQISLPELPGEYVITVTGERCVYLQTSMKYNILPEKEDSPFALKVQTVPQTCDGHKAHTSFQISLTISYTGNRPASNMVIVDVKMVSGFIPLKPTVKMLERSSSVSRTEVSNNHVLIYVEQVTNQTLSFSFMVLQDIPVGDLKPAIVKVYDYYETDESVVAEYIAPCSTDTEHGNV
UniProt Q6GMV3: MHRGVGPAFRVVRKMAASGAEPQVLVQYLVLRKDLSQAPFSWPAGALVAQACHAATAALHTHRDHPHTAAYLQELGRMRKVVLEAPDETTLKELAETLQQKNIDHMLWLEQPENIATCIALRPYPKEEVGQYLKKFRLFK
UniProt Q9UL46, whole entry, looked up: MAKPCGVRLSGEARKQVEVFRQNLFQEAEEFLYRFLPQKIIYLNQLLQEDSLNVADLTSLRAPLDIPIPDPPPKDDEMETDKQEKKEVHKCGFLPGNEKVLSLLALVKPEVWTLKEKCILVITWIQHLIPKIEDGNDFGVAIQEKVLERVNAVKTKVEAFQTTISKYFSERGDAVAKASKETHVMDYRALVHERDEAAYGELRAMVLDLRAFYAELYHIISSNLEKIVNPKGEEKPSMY
UniProt Q05209: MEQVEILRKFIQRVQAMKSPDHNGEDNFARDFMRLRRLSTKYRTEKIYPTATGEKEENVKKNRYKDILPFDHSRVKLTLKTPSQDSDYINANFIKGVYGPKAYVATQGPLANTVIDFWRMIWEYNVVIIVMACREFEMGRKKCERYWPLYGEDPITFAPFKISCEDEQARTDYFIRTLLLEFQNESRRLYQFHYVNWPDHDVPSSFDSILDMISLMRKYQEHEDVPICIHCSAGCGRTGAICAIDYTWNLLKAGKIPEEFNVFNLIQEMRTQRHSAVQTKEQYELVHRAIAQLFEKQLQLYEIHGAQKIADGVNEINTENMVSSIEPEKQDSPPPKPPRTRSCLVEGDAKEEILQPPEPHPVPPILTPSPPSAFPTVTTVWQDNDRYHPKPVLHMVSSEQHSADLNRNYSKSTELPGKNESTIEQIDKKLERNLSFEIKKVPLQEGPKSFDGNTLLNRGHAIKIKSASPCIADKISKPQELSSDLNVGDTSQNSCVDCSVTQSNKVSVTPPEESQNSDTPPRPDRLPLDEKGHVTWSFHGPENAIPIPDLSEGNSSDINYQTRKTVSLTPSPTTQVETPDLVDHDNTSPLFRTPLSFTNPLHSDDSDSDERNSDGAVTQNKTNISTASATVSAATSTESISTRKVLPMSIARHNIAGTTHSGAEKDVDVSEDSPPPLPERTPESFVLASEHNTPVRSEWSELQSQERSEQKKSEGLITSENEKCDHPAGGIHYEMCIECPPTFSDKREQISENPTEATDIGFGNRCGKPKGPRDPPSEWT
UniProt P08575: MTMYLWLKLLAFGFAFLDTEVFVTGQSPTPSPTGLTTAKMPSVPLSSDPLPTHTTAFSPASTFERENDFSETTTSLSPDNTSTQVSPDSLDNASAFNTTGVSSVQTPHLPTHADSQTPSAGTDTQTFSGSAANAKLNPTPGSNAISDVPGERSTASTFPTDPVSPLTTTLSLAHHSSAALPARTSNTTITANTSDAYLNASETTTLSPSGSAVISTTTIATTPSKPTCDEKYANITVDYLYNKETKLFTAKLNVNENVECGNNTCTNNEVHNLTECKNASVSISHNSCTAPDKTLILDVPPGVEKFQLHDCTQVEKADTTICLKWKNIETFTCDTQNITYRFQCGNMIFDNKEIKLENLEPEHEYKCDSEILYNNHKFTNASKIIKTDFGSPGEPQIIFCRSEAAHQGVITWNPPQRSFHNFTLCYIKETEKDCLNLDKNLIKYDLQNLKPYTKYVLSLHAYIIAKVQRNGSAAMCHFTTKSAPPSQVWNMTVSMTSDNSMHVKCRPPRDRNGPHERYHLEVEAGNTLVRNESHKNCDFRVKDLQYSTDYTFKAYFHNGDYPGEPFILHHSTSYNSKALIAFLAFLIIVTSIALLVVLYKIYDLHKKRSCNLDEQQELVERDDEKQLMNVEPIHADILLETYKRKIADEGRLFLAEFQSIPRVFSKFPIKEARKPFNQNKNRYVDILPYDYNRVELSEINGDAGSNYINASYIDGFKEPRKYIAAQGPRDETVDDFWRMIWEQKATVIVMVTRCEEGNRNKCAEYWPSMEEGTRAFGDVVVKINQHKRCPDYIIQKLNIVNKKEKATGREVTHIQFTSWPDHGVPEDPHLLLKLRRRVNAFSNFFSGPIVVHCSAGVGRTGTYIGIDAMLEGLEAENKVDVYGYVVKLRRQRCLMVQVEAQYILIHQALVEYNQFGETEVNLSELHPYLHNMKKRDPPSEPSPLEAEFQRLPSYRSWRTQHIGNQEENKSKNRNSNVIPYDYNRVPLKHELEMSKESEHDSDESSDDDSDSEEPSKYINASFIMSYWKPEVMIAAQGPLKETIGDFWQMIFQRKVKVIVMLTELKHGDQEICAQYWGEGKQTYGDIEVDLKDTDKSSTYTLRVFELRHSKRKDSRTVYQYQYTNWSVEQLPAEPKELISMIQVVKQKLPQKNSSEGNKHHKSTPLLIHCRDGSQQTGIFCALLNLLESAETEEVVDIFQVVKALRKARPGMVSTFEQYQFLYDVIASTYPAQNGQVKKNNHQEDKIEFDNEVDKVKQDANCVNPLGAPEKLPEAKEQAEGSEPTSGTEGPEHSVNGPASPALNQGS
UniProt Q9Y3E5: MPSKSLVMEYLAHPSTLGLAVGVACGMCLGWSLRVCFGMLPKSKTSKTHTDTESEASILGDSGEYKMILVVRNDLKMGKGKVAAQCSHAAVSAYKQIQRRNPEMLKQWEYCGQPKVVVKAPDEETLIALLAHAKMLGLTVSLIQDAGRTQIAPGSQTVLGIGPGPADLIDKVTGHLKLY
UniProt Q53H96: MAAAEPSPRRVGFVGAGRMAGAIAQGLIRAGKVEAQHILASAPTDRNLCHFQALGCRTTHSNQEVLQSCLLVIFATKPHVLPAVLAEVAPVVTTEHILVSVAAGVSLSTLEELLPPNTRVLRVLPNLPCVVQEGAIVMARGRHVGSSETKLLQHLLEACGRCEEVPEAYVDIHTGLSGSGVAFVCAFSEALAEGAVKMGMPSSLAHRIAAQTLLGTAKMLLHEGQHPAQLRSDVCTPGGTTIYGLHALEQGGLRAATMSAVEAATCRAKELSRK
UniProt P28072: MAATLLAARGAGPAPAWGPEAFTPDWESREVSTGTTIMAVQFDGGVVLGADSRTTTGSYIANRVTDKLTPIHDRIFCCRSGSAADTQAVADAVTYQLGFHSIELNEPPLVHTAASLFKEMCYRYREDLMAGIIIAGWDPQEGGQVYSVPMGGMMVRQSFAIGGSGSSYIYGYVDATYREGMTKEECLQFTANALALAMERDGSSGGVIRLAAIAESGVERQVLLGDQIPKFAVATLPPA
UniProt Q9BT73: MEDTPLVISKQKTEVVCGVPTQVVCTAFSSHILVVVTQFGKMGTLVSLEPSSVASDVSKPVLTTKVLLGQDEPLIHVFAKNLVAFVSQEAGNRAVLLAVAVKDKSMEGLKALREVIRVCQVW
UniProt P07602: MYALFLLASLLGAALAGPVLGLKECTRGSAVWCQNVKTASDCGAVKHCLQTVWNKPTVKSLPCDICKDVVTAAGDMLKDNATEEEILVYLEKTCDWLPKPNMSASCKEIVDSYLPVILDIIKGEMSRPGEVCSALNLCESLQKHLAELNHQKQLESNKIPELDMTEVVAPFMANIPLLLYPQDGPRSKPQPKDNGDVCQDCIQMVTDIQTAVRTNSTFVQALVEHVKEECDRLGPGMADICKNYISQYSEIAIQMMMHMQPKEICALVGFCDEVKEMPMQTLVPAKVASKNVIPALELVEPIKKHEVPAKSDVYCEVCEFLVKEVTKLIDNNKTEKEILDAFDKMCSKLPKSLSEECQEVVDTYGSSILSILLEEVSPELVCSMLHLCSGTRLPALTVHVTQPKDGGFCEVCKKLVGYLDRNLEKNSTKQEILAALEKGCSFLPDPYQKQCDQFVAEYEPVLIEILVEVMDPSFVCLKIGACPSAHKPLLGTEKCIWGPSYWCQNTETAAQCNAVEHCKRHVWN
UniProt P49720: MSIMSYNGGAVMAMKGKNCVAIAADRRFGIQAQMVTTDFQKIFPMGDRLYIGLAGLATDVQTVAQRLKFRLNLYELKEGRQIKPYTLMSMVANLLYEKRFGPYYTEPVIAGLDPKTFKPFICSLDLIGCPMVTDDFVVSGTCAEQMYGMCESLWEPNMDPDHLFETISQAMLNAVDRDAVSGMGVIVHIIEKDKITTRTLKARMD
UniProt Q9ULZ3, whole entry, looked up: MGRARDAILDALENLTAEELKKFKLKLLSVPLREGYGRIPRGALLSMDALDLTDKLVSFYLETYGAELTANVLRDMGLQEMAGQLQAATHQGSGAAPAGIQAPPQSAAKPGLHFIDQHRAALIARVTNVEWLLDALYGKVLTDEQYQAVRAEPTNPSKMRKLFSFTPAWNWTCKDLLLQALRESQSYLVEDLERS
UniProt Q16401: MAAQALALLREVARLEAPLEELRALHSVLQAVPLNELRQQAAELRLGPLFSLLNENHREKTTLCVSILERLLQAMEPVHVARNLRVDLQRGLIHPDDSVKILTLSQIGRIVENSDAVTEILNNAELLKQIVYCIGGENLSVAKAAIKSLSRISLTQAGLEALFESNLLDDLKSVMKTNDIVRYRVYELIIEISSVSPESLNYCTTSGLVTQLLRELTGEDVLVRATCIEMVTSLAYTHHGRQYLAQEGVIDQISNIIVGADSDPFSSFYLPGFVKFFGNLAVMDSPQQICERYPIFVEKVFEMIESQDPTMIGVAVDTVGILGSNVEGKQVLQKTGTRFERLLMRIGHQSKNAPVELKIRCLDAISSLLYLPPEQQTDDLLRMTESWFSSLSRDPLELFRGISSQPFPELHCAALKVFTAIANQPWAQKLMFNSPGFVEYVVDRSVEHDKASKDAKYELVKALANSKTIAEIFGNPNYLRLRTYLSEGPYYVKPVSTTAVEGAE

What was measured:
Assay in all cases: log2 fold change, soluble protein after heating vs DMSO (PISA); higher = thermal stabilisation; K562 cells, 10 uM, 30 min; active = over 0.2 and 3.5 SD of the protein, either way, in both replicates (recomputed)
[1] = compound: COC1=CC=C(C=C1)CN2C=CC3=C2C=C(C=C3)C(=O)NO
In short: (§1)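 K562 cells at 2×10^6 cells/mL were exposed to 10 μM compound for 30 min, then aliquots were heated for 3 min across 48°C-58°C, pooled, and extracted in PBS containing 0.5% NP-40 at 4°C. The supernatant after 21,000xg for 90 min was taken as soluble protein and measured by TMTpro 16plex LC-MS/MS with channel sums equalised. Thermal stability is reported relative to control samples, with values from duplicates. Fold changes are given on a log2 scale.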

filanesib = compound: CON(C)C(=O)N1N=C(c2cc(F)ccc2F)S[C@@]1(CCCN)c1ccccc1 [filanesib]
In short: as §1

zotarolimus = compound: CO[C@H]1C[C@@H]2CC[C@@H](C)[C@@](O)(O2)C(=O)C(=O)N2CCCC[C@H]2C(=O)O[C@H]([C@H](C)C[C@@H]2CC[C@H](n3cnnn3)[C@H](OC)C2)CC(=O)[C@H](C)/C=C(\C)[C@@H](O)[C@@H](OC)C(=O)[C@H](C)C[C@H](C)/C=C/C=C/C=C/1C [zotarolimus]
In short: as §1

idasanutlin = compound: COc1cc(C(=O)O)ccc1NC(=O)[C@@H]1N[C@@H](CC(C)(C)C)[C@](C#N)(c2ccc(Cl)cc2F)[C@H]1c1cccc(Cl)c1F [idasanutlin]
In short: as §1

alisertib = compound: COc1cc(Nc2ncc3c(n2)-c2ccc(Cl)cc2C(c2c(F)cccc2OC)=NC3)ccc1C(=O)O [alisertib]
In short: as §1

[2] = compound: COc1cc2nc(-c3cc(F)ccc3O)nc(N[C@@H]3CNC[C@H]3C(C)(C)O)c2cc1OC
In short: as §1

gefitinib = compound: COc1cc2ncnc(Nc3ccc(F)c(Cl)c3)c2cc1OCCCN1CCOCC1 [gefitinib]
In short: as §1

[3] = compound: COc1cccc2cc(-c3nc([C@H]4CC[C@H](C(=O)O)CC4)n4ncnc(N)c34)[nH]c12
In short: as §1

lapatinib = compound: CS(=O)(=O)CCNCc1ccc(-c2ccc3ncnc(Nc4ccc(OCc5cccc(F)c5)c(Cl)c4)c3c2)o1 [lapatinib]
In short: as §1

pictilisib = compound: CS(=O)(=O)N1CCN(Cc2cc3nc(-c4cccc5[nH]ncc45)nc(N4CCOCC4)c3s2)CC1 [pictilisib]
In short: as §1

Row | Target | log2 fold change [1] | log2 fold change (filanesib) | log2 fold change (zotarolimus) | log2 fold change (idasanutlin) | log2 fold change (alisertib) | log2 fold change [2] | log2 fold change (gefitinib) | log2 fold change [3] | log2 fold change (lapatinib) | log2 fold change (pictilisib)
1 | PSMC6 (UniProt P62333) | inactive: -0.059 | inactive: 0.083 | inactive: -0.003 | inactive: 0.005 | inactive: -0.093 | inactive: -0.024 | inactive: -0.038 | inactive: -0.057 | inactive: 0.049 | inactive: -0.054
2 | PTMA (UniProt P06454) | inactive: 0.118 | inactive: -0.093 | inactive: -0.054 | inactive: -0.045 | active: -0.596 | inactive: -0.049 | inactive: 0.029 | inactive: 0.043 | inactive: -0.016 | inactive: 0.001
3 | PTPN1 (UniProt P18031) | inactive: 0.003 | inactive: 0.186 | inactive: 0.059 | inactive: 0.057 | inactive: 0.037 | inactive: 0.144 | inactive: 0.072 | inactive: -0.129 | inactive: 0.024 | inactive: -0.021
4 | PZP (UniProt P20742) | inactive: -0.096 | inactive: 0.081 | inactive: -0.132 | inactive: 0.074 | inactive: -0.121 | inactive: -0.002 | inactive: -0.164 | inactive: 0.118 | inactive: -0.03 | inactive: -0.064
5 | PTP4A1 (UniProt Q93096) | inactive: 0.009 | inactive: -0.088 | inactive: 0.05 | inactive: 0.089 | inactive: -0.129 | active: -0.267 | inactive: 0.033 | inactive: 0.04 | inactive: 0.024 | inactive: 0.068
6 | PTRHD1 (UniProt Q6GMV3) | inactive: -0.051 | inactive: 0.065 | inactive: -0.008 | inactive: 0.042 | inactive: -0.103 | inactive: -0.025 | inactive: 0.085 | inactive: 0.068 | inactive: -0.061 | inactive: 0.02
7 | PSME2 (UniProt Q9UL46) | inactive: -0.095 | inactive: -0.037 | inactive: 0.002 | inactive: -0.021 | inactive: -0.042 | inactive: -0.067 | inactive: 0.024 | inactive: 0.007 | inactive: -0.017 | inactive: -0.035
8 | PTPN12 (UniProt Q05209) | inactive: -0.024 | inactive: 0.04 | inactive: 0.041 | inactive: -0.021 | inactive: -0.06 | inactive: 0.053 | inactive: 0.025 | inactive: -0.132 | inactive: 0.039 | inactive: 0.012
9 | PURB (UniProt Q96QR8) | inactive: -0.242 | inactive: 0.448 | inactive: -0.081 | inactive: 0.152 | inactive: -0.066 | inactive: -0.068 | inactive: -0.054 | inactive: -0.119 | inactive: 0.123 | inactive: -0.227
10 | PTPRC (UniProt P08575) | inactive: -0.02 | inactive: 0.026 | inactive: -0.028 | inactive: -0.01 | inactive: -0.049 | inactive: 0.063 | inactive: 0.02 | inactive: 0.041 | inactive: -0.018 | inactive: 0.087
11 | PTGS1 isoform 6 (UniProt P23219) | inactive: -0.025 | inactive: -0.012 | inactive: 0.067 | inactive: -0.12 | inactive: 0.192 | inactive: 0.024 | inactive: -0.024 | inactive: -0.07 | inactive: -0.027 | inactive: 0.017
12 | PSMA3 (UniProt P25788) | inactive: 0.015 | inactive: 0.034 | inactive: 0.044 | inactive: 0.019 | inactive: -0.04 | inactive: -0.079 | inactive: -0.025 | inactive: -0.003 | inactive: 0.062 | inactive: -0.053
13 | PSMA7 (UniProt O14818) | inactive: -0.06 | inactive: 0.082 | inactive: 0.007 | inactive: -0.003 | inactive: -0.088 | inactive: -0.023 | inactive: -0.01 | inactive: -0.011 | inactive: 0.024 | inactive: 0.056
14 | PTRH2 (UniProt Q9Y3E5) | active: 0.403 | inactive: -0.033 | inactive: 0.01 | inactive: -0.076 | inactive: -0.009 | inactive: 0.07 | inactive: 0.015 | inactive: 0.001 | inactive: 0.012 | inactive: -0.005
15 | PYCR3 (UniProt Q53H96) | inactive: 0.06 | inactive: -0.041 | inactive: 0.005 | inactive: -0.019 | inactive: -0.035 | inactive: 0.033 | inactive: 0.017 | inactive: 0.056 | inactive: -0.02 | inactive: 0.007
16 | PSMB6 (UniProt P28072) | inactive: -0.055 | inactive: 0.075 | inactive: -0.018 | inactive: 0.044 | inactive: -0.062 | inactive: -0.014 | inactive: -0.027 | inactive: 0.018 | inactive: 0.035 | inactive: -0.017
17 | PSMG3 (UniProt Q9BT73) | inactive: -0.008 | inactive: -0.008 | inactive: -0.053 | inactive: -0.042 | inactive: -0.144 | inactive: -0.036 | inactive: 0.021 | inactive: 0.01 | inactive: 0.011 | inactive: 0.122
18 | PTDSS1 (UniProt P48651) | inactive: -0.015 | inactive: 0.075 | inactive: 0.053 | inactive: 0.124 | inactive: -0.098 | inactive: -0.071 | inactive: 0.041 | inactive: -0.012 | inactive: 0.04 | inactive: -0.098
19 | PTK2 (UniProt Q05397) | inactive: -0.094 | inactive: -0.05 | inactive: 0.02 | inactive: -0.083 | inactive: -0.009 | inactive: 0.052 | inactive: -0.021 | inactive: 0.041 | inactive: -0.009 | inactive: -0.01
20 | PXMP4 (UniProt Q9Y6I8) | inactive: -0.073 | inactive: -0.098 | inactive: -0.049 | inactive: -0.065 | inactive: -0.022 | inactive: -0.094 | inactive: -0.028 | inactive: 0.096 | inactive: 0.024 | inactive: 0.053
21 | PSAP isoform 3 (UniProt P07602) | inactive: 0 | inactive: 0.011 | inactive: 0.022 | inactive: 0.011 | inactive: -0.014 | inactive: -0.05 | inactive: 0.015 | inactive: 0.072 | inactive: -0.045 | inactive: 0.035
22 | PSMD4 (UniProt Q5VWC4) | inactive: -0.031 | inactive: -0.032 | inactive: -0.006 | inactive: -0.007 | inactive: -0.068 | inactive: -0.135 | inactive: -0.006 | inactive: 0.024 | inactive: 0.052 | inactive: -0.13
23 | PSMB3 (UniProt P49720) | inactive: -0.053 | inactive: 0.058 | inactive: 0.013 | inactive: 0.014 | inactive: -0.038 | inactive: -0.032 | inactive: 0 | inactive: 0.022 | inactive: 0.045 | inactive: -0.075
24 | PYCARD (UniProt Q9ULZ3) | inactive: 0.078 | inactive: -0.053 | inactive: 0.044 | inactive: -0.089 | inactive: -0.021 | inactive: -0.025 | inactive: 0.025 | inactive: 0.016 | inactive: 0.031 | inactive: 0.029
25 | PSMD5 (UniProt Q16401) | inactive: 0.024 | inactive: -0.046 | inactive: 0.013 | inactive: -0.055 | inactive: -0.055 | inactive: -0.017 | inactive: -0.013 | inactive: 0 | inactive: 0.017 | inactive: -0.017
26 | PSME1 (UniProt Q06323) | inactive: -0.026 | inactive: -0.092 | inactive: 0.021 | inactive: -0.014 | inactive: -0.049 | inactive: -0.014 | inactive: 0.006 | inactive: 0.009 | inactive: -0.078 | inactive: -0.011
27 | PSRC1 (UniProt Q6PGN9) | inactive: 0.014 | inactive: 0.203 | inactive: -0.068 | inactive: 0.073 | inactive: -0.165 | inactive: 0.058 | inactive: 0.018 | inactive: -0.185 | inactive: -0.03 | inactive: -0.029
28 | QRSL1 (UniProt Q9H0R6) | inactive: -0.01 | inactive: -0.087 | inactive: -0.028 | inactive: -0.128 | inactive: 0.022 | inactive: -0.005 | inactive: -0.007 | inactive: 0.017 | inactive: 0.003 | inactive: 0.06
29 | PSMB2 (UniProt P49721) | inactive: 0.109 | inactive: 0.05 | inactive: -0.015 | inactive: -0.006 | inactive: -0.078 | inactive: -0.077 | inactive: -0.026 | inactive: 0 | inactive: 0.049 | inactive: -0.076

Looked up one by one from above, two records:
Row | Target | log2 fold change [1] | log2 fold change (filanesib) | log2 fold change (zotarolimus) | log2 fold change (idasanutlin) | log2 fold change (alisertib) | log2 fold change [2] | log2 fold change (gefitinib) | log2 fold change [3] | log2 fold change (lapatinib) | log2 fold change (pictilisib)
24 | PYCARD (UniProt Q9ULZ3) | inactive: 0.078 | inactive: -0.053 | inactive: 0.044 | inactive: -0.089 | inactive: -0.021 | inactive: -0.025 | inactive: 0.025 | inactive: 0.016 | inactive: 0.031 | inactive: 0.029
15 | PYCR3 (UniProt Q53H96) | inactive: 0.06 | inactive: -0.041 | inactive: 0.005 | inactive: -0.019 | inactive: -0.035 | inactive: 0.033 | inactive: 0.017 | inactive: 0.056 | inactive: -0.02 | inactive: 0.007
